Results reported in publication doi:10.1101/2024.04.03.587858.
Like-named read-outs stand apart in the source and are kept apart here. No constants are given. Whether binding was seen depends on the method and setting. In cells and extracts the contact can be indirect. Some binding calls cover weakened binding; strength is not graded here. For part of these data: Sequences can lack the tags named with a protein. Values belong to the molecule of their own block, whether it stands above or below them.

Amino acid sequences for entries named in this document (tags omitted). A change or cut given only in a name is not applied to a line headed by its entry.
UniProt Q04207, whole entry: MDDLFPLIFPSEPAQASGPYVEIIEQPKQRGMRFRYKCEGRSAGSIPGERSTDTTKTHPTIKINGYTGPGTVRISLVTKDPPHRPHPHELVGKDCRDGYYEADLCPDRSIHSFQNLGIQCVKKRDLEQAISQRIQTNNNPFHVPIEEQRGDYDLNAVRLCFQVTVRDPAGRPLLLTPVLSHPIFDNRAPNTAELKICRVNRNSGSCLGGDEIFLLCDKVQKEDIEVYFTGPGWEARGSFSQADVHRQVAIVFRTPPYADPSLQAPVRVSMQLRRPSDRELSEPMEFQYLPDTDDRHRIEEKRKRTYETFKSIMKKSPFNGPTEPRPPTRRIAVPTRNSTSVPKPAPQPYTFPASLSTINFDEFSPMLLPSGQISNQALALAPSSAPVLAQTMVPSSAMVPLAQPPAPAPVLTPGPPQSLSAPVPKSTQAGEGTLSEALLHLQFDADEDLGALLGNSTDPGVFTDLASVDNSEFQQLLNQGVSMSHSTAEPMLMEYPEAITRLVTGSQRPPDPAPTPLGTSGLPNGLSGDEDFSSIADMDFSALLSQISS
UniProt O35343, whole entry: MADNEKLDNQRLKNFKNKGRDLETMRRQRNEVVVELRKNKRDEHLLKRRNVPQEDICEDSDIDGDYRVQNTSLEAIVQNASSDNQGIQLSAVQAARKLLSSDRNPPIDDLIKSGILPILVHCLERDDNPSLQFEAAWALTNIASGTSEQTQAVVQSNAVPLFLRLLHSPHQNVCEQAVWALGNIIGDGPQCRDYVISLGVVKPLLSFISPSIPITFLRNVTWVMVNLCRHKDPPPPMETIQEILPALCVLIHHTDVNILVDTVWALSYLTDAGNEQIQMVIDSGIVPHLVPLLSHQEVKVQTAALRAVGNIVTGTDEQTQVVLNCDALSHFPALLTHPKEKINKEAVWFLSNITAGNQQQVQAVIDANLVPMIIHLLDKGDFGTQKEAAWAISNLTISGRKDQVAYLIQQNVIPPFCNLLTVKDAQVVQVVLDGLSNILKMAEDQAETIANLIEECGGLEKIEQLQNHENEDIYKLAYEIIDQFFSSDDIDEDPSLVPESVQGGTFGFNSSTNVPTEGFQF
UniProt O35344, whole entry: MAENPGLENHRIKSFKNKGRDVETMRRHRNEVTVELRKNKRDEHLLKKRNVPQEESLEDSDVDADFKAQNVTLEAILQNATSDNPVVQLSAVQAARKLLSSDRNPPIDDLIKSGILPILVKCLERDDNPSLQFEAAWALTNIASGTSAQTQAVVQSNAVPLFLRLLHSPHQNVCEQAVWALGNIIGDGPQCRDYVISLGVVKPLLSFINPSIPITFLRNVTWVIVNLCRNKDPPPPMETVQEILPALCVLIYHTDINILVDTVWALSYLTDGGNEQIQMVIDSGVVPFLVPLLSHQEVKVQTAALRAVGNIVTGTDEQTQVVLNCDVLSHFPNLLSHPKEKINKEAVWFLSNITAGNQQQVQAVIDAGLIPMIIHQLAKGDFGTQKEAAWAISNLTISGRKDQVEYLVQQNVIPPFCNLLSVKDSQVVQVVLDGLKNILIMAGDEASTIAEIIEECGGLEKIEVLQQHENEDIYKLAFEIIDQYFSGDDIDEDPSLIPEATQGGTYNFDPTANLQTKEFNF

What was measured:
Experiment in all cases: co-IP
[1] = molecular target: Flag-P65^DM (K301R/K303R) (mouse) (UniProt Q04207)
[2] = molecular target: Flag-P65 (mouse NF-kB p65, full length) (mouse) (UniProt Q04207)
[3] = molecular target: Flag-P65 (mouse NF-kB p65, full length) (mouse) (UniProt Q04207); remark: listed apart in the source

binding [1]: binds
binding [2]: binds
Molecule: HA-importin α3 (from UniProt O35343 1-521)

binding [1]: binds
binding [2]: binds
Molecule: HA-importin α4 (from UniProt O35344 1-521)

binding [3]: binds
B1: Myc-HOIL-1 (enzyme, UniProt Q9WUB0 1-508)
chain: MDEKTKKAEEMALSLARAVAGGDEQAAIKYATWLAEQRVPLRVQVKPEVSPTQDIRLCVSVEDAYMHTVTIWLTVRPDMTVASLKDMVFLDYGFPPSLQQWVVGQRLARDQETLHSHGIRRNGDGAYLYLLSARNTSLNPQELQRQRQLRMLEDLGFKDLTLQSRGPLEPVLPKPRTNQEPGQPDAAPESPPVGWQCPGCTFINKPTRPGCEMCCRARPETYQIPASYQPDEEERARLAGEEEALRQYQQRKQQQQEGNYLQHVQLEQRSLVLNTEPTECPVCYSVLAPGEAVVLRECLHTFCRECLQGTIRNSQEAEVACPFIDSTYSCPGKLLEREIRALLSPEDYQRFLDLGVSIAENRSTLSYHCKTPDCRGWCFFEDDVNEFTCPVCTRVNCLLCKAIHEHMNCREYQDDLALRAQNDVAARQTTEMLKVMLQQGEAMHCPQCRIVVQKKDGCDWIRCTVCHTEICWVTKGPRWGPGGPGDTSGGCRCRVNGIPCHPSCQNCH

binding [3]: binds
B2: Myc-Sharpin (protein, UniProt Q91WA6 1-380)
chain: MSPPAGGAAVAADPASPVVLLAVHAAVRPLGAGQDAEAQPRKLQLIADPERPGRFRLGLLGTEPGAVSLEWPLEAICYTVRGPNQHELQPPPGGPGTFSVHFLDPEEAQQWAALVRDATAEGQNGSGSPAPAPAPAMCPISPPCSSMAQIPKATQPEVDLPQSSGNFKKEELATRLSQAIAGGDEKAAAQVAAVLAQHHVALNVQLMEAWFPPGPIRLQVTVEDATSVLSSSSSAHVSLKIHPHCSIAALQDQVFSEFGFPPAVQRWVIGRCLCMPERSLASYGVSQDGDPAFLYLLSAPREVSGQSLQNSKMDRKLGLFPQSLGLPHDLQPSSSSLPSPSQPGWSCPSCTFINASNRPGCEMCSTQRPCAWDPLAAAST
